For this experiment, the system named is CD2F1 mice, L1210 leukemia ip, survival T/C. Briefly: NCI In Vivo Anticancer Drug Screen. Data for tumor model L1210 Leukemia (intraperitoneal) in CD2F1 (CDF1) mice. Particulars: higher T/C = longer survival. Summed up:
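Ratio T/C, where T is the treated-group value and C the vehicle-dosed control value, from mice implanted with a transplantable tumor.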

The mark [1] stands for this setting: T/C endpoint: mean survival time, dose: 400.0 mg/kg/injection, schedule: Q01DX009 (ip), vehicle: saline with Tween-80.

From PubChem BioAssay AID256 (DTP/NCI, 2004) come the findings set out here.

SMILES strings stand for the structures. The list does not hold the whole screen: it is rich in T/C values a quarter to a half above the control, in often repeated tests (any T/C) and in doses without a T/C. Other doses and runs of a compound stand elsewhere. T/C: endpoint of the treated group in % of that of the vehicle group. Some entries give survivors of the animals treated and no T/C: the source files T/C as zero there, which appears to mark a toxic dose or a test without result, not a measured value. Some survivor counts are full or nearly so, which does not show that the dose was tolerated: survival well below the control is almost never listed, so the zero probably covers shortened survival too. Counts of survivors are from the toxicity check (mostly the fifth day) where no day follows; animals may have died later. Schedule codes are those of the source, taken here to give the interval after Q, in days (D) or hours (H), and the number of doses after X. Some entries hold several experiments; their values stand side by side, smallest first. For survival time, the PubChem record calls one and a half times the control and up active, and a quarter to a half above the control has no call in these data; cut-offs in other NCI protocols can differ. Some T/C values carry the count of animals alive at the toxicity check (mostly the fifth day); without a count, all were alive then.

For the molecule `COc1ccc(S(=O)(=O)N=N/C=C2\C=CC=CN2O)cc1OC`, the T/C runs as follows: (T/C endpoint: median survival time, dose: 25.0 mg/kg/injection, schedule: Q01DX009 (ip), vehicle: saline with Tween-80) 106, 108, 109, 111 % of control; (T/C endpoint: median survival time, dose: 50.0 mg/kg/injection, schedule: Q01DX009 (ip), vehicle: saline with Tween-80) 106, 109 [5 of 6 alive], 114, 118 % of control; (T/C endpoint: median survival time, dose: 75.0 mg/kg/injection, schedule: Q01DX009 (ip), vehicle: saline with Tween-80) 134 % of control; (T/C endpoint: median survival time, dose: 100.0 mg/kg/injection, schedule: Q01DX009 (ip), vehicle: saline with Tween-80) 125 and 137 % of control. In addition, the survivor count (T/C endpoint: median survival time, dose: 200.0 mg/kg/injection, schedule: Q01DX009 (ip), vehicle: saline with Tween-80) is 0 of 6 and 1 of 6.
Consider `CC1(c2ccc(Cl)cc2)OC(=O)C(=Cc2ccc([N+](=O)[O-])s2)C(=O)O1` (stereo unspecified), for which the survivor count (T/C endpoint: mean survival time, dose: 200.0 mg/kg/injection, schedule: Q01DX009 (ip), vehicle: saline with Tween-80) is listed as 4 of 6.
`CCCCCCC[CH2][Sn]1([CH2]CCCCCCC)[O]C2C(CO)OC(n3cnc4c(=O)[nH]c(N)nc43)C2[O]1` (stereo unspecified): the survivor count is recorded as 0 of 6 (T/C endpoint: mean survival time, dose: 25.0 mg/kg/injection, schedule: Q01DX005 (ip), vehicle: other); 0 of 6 (T/C endpoint: mean survival time, dose: 50.0 mg/kg/injection, schedule: Q01DX005 (ip), vehicle: other); 0 of 6 (T/C endpoint: mean survival time, dose: 100.0 mg/kg/injection, schedule: Q01DX005 (ip), vehicle: other); 0 of 6 (T/C endpoint: mean survival time, dose: 200.0 mg/kg/injection, schedule: Q01DX005 (ip), vehicle: other).
As for `Clc1nc2ccccc2nc1CI`, the survivor count reads like this: (T/C endpoint: mean survival time, dose: 200.0 mg/kg/injection, schedule: Q04DX003 (ip), vehicle: acetone) 0 of 6; (T/C endpoint: mean survival time, dose: 400.0 mg/kg/injection, schedule: Q04DX003 (ip), vehicle: acetone) 0 of 6.
`CCCCOCN(COCCCC)C(C)Cc1ccccc1` (stereo unspecified): the survivor count under setting [1] was 3 of 6.
For `O=C(O)C(=O)O.[NH-]C1CCCCC1C1CCCCC1[NH-].[Pt+2]` (stereo unspecified), the T/C (T/C endpoint: mean survival time, dose: 12.5 mg/kg/injection, schedule: Q04DX003 (ip), vehicle: distilled water + Tween-80) is 125 % of control. Besides, the survivor count (T/C endpoint: mean survival time, dose: 100.0 mg/kg/injection, schedule: Q04DX003 (ip), vehicle: distilled water + Tween-80) is reported as 3 of 6 and the survivor count (T/C endpoint: mean survival time, dose: 200.0 mg/kg/injection, schedule: Q04DX003 (ip), vehicle: distilled water + Tween-80) was 0 of 6.
`O=[N+]([O-])c1ccc(/C=N\N=C\c2ccco2)cc1`: the survivor count is, setting by setting: (T/C endpoint: mean survival time, dose: 100.0 mg/kg/injection, schedule: Q01DX009 (ip), vehicle: saline with Tween-80) 6 of 6; under setting [1], 6 of 6.
Regarding `C[n+]1c2ccccc2c(Cl)c2ccccc21`, the survivor count (T/C endpoint: mean survival time, dose: 400.0 mg/kg/injection, schedule: Q01DX001 (ip), vehicle: saline with Tween-80) was 0 of 6.
With `CCC[CH2][Sn]([Br])([c]1ccccc1)[c]1ccccc1`, the survivor count (T/C endpoint: mean survival time, dose: 6.25 mg/kg/injection, schedule: Q01DX009 (ip), vehicle: saline with Tween-80) was 4 of 6; the survivor count (T/C endpoint: mean survival time, dose: 12.5 mg/kg/injection, schedule: Q01DX009 (ip), vehicle: saline with Tween-80) is 0 of 6; the survivor count (T/C endpoint: mean survival time, dose: 25.0 mg/kg/injection, schedule: Q01DX009 (ip), vehicle: saline with Tween-80) is reported as 0 of 6; the survivor count (T/C endpoint: mean survival time, dose: 25.0 mg/kg/injection, schedule: Q04DX002 (ip), vehicle: saline with Tween-80) is recorded as 0 of 3; the survivor count (T/C endpoint: mean survival time, dose: 50.0 mg/kg/injection, schedule: Q04DX002 (ip), vehicle: saline with Tween-80) is recorded as 0 of 3; the survivor count (T/C endpoint: mean survival time, dose: 100.0 mg/kg/injection, schedule: Q04DX002 (ip), vehicle: saline with Tween-80) is given as 0 of 3.
For `O=C1N[C@@H]2C(=C[C@H](O)[C@@H](O)[C@H]2O)c2cc3c(c(O)c21)OCO3`, the survivor count (T/C endpoint: median survival time, dose: 10.0 mg/kg/injection, schedule: Q01DX009 (ip), vehicle: saline with Tween-80) is reported as 2 of 6.
With `Fc1ccc(NC(=S)SCc2ccc(Cl)c(Cl)c2)cc1F`, under “T/C endpoint: mean survival time, dose: 400.0 mg/kg/injection, schedule: Q01DX009 (ip), vehicle: Klucel (hydroxypropylcellulose) (HPC)”, the survivor count is 5 of 6.
`N#CC1CCCC[N-]1.[NH-]CC[N-]CC[NH-].[Pt+4]` (stereo unspecified): the survivor count (T/C endpoint: mean survival time, dose: 200.0 mg/kg/injection, schedule: Q01DX009 (ip), vehicle: water) is 0 of 6.
Consider `CC1OC(O[C@@H]2C=C3CC[C@@H]4[C@H](CC[C@]5(C)[C@@H](c6ccc(=O)oc6)CC[C@]45O)[C@@]3(C)CC2)C(O)C(O)C1O` (stereo partly specified), for which, under “T/C endpoint: mean survival time, dose: 20.0 mg/kg/injection, schedule: Q01DX009 (sc), vehicle: steroid suspending solution”, the survivor count was 2 of 6.
On to `CN(C)c1ccc2c(SCC(=O)OCC(=O)[C@@]3(O)CC[C@H]4[C@@H]5CCC6=CC(=O)C=C[C@]6(C)[C@H]5C(=O)C[C@@]43C)c3ccc(N(C)C)cc3nc2c1`, for which the T/C (T/C endpoint: median survival time, dose: 200.0 mg/kg/injection, schedule: Q01DX009 (ip), vehicle: Klucel (hydroxypropylcellulose) (HPC)) is 126 and 132 % of control. Under “T/C endpoint: median survival time, dose: 400.0 mg/kg/injection, schedule: Q01DX009 (ip), vehicle: Klucel (hydroxypropylcellulose) (HPC)”, the survivor count is on record as 2 of 6.
